About 2,100 (0.66%) of roughly 320,000 compounds were called active. This list was built around the results that the source calls inconclusive (neither active nor inactive); the mix of calls is not that of the screen. Calls come from the whole dose curve; as a rule, active = well fitted inhibition curve with a large enough effect in the signal ratio, with a control signal flat (not every such curve was filed as active); inconclusive = small, poorly fitted or top-dose-only effect, or effect the other way, or a change in a side signal; inactive = flat fitted curve, though single readings scatter; the % refers to the signal ratio. A potency beside an inconclusive call is a rough fit, not a confirmed value.
assay: qHTS Assay for Lipid Storage Modulators in Drosophila S3 Cells; conditions: BODIPY lipid droplet fluorescence, 18-24 h, cells fed with added oleic acid; lipid storage change, negative = inhibition: at 46.1 µM (top of the series) unless noted
Outline: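 Drosophila S3 cells got compounds at several concentrations plus oleic acid (400 uM solution). Laser-scanning cytometry with 488 nm excitation read lipid droplets at 500-530 nm and cells at 575-640 nm. Percent activity was relative to 20 uM Triacsin C.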
% is set by controls: 0 for no effect and ±100 for the full control effect; potency is the fitted concentration of half-maximal effect.

Lipid storage change, negative = inhibition, inconclusive:
COC(=O)c1[nH]c2cc(OC)c(OC)cc2c1NC(=O)CN1C[C@H]2C[C@@H](C1)c1cccc(=O)n1C2 -49.7%
Cc1ccc(C)c(N2CCN(S(=O)(=O)c3ccc4c(c3)CCC(=O)N4)CC2)c1 38.2%
COc1cc(CNc2nc3ccccc3n2C)cc(OC)c1OC 12.3%
CCOC(=O)c1ccc(N2C(=O)c3n[nH]c(C)c3C2c2cccnc2)cc1 (centres undefined) 24.7%
CN(C(=O)COc1ncnc2c1cnn2-c1ccccc1)C1CCCCC1 3.33%
CNC(=S)N(Cc1ccco1)Cc1cc2cc(OC)ccc2[nH]c1=O 5.88%
CCN(CC)C(=O)c1[nH]cnc1C(=O)NCc1ccc(CNC(=O)OC(C)(C)C)cc1 14.3%
Cn1c(C(=O)NCc2cccs2)cc2oc3ccccc3c21 -7.69%
CCN(CC(=O)NCc1cccs1)C(=O)CCc1c[nH]c2ccccc12 25.7%
CCCOC(=O)/C(=C\c1ccc([N+](=O)[O-])o1)NC(=O)c1ccccc1 -17.7%
COc1ccc(CCNC(=O)C2CCN(C(=O)c3ccc([N+](=O)[O-])cc3)CC2)cc1 -6.27%
Cn1nc(C(F)(F)F)c(C(=O)Nc2ccc(F)cc2F)c1Cl 2.81%
CCCCOc1ccc(S(=O)(=O)Nc2cc(OC)ccc2OC)cc1 18.4%
O=C(NCC1CCCO1)c1ccc(-c2cccc(C(F)(F)F)c2)o1 (centres undefined) -6.06%
CCOC(=O)C1CCN(CC(=O)Nc2cc(S(=O)(=O)N3CCCCC3)ccc2Cl)CC1
COc1ccc(Cl)cc1NC(=O)c1cc(-c2ccccc2O)n[nH]1 35.4%
CCn1c(-c2csc3ccccc23)n[nH]c1=S 22.2%
COc1ccc(CCNC(=O)c2[nH]c(C)c(C(C)=O)c2C)cc1OC 30%
CC(OC(=O)C1=COCCO1)C(=O)NC1CCCCC1C (centres undefined) -22.1%
CC1=CCC(C(=O)O)C(C(=O)Nc2nc3ccc(S(C)(=O)=O)cc3s2)C1 (centres undefined) -28.7%
COC(=O)[C@@H](Cc1c[nH]c2ccccc12)NC(=O)C1CCCN(S(=O)(=O)c2ccc(C)cc2)C1 (some centres undefined) 0.424%
Cn1cc(CCCC(=O)NCc2ccccc2)c2ccccc21 35.8%
NC(=O)C[C@@H]1N[C@]2(C(=O)Nc3ccccc32)[C@@H]2C(=O)N(c3cc(C(F)(F)F)ccc3Cl)C(=O)[C@H]12 3.64%
COc1ccccc1CNC(=O)C(=O)NCC1CCCN1S(=O)(=O)c1cccs1 (centres undefined)
CCOC(=O)C=Nc1c(N)n(C)c(=O)n(C)c1=O 3.23%
Cc1cc(C)n2nc(C(=O)OCC(=O)NCc3ccccc3)nc2n1 16.9%
COc1ccc(/C=N/Nc2ccc(C(F)(F)F)cc2[N+](=O)[O-])cc1O 5.82%
Cc1ccc(S(=O)(=O)N(C)C)cc1NC(=O)c1ccccc1SCC(=O)N1CCCC1 47.2%
COC(=O)c1nn(-c2ccccc2)nc1-c1nn(-c2ccccc2)nc1C(=O)OC 5.89%
O=C(c1ccc(Cl)nc1)N1CCc2ccccc2C1 -8.56%
CC(C)CNC(=O)C(=O)Nc1cc2c3c(c1)C(C)C(=O)N3CCC2 (centres undefined) -64%
CCOc1ccc(-n2c(=S)sc3c(=O)[nH]c(SCC(=O)NCC4CCCO4)nc32)cc1 (centres undefined) -9.5%
COc1ccc2oc(C(=O)Nc3ccc(C)cn3)c(C)c2c1 30.2%

Lipid storage change, negative = inhibition, inactive:
COc1ccc(CNc2ncccn2)cc1OC -2.64%

Potency, inconclusive:
COc1ccccc1/C=C/CN1CCC(n2nccc2NC(=O)CCc2ccccc2)CC1 29.1 µM [falling, single point]
O=C(CC1C(=O)NCCN1Cc1ccccc1C(F)(F)F)NC1CCCCCC1 (centres undefined) 0.291 µM [falling, full curve]
COc1ccc(C2CC(c3ccccc3OC(C)=O)=NN2C(=O)/C=C/c2ccccc2)cc1OC (centres undefined) 1.46 µM [falling, full curve]
NS(=O)(=O)c1ccc(N=C2C(=O)Nc3ccccc32)cc1 25.9 µM [falling, partial curve, poor fit]
Cc1ccc(C)c(N2CCN(C(=O)C3CCCCN3S(=O)(=O)c3ccc(F)cc3)CC2)c1 (centres undefined) 20.6 µM [activator, partial curve]
O=C1/C(=C/c2ccco2)Cc2ccccc21 18.4 µM [falling, single point]
Cc1cc([N+](=O)[O-])nn1Cc1ccc(F)cc1 1.84 µM [falling, partial curve]
O=C(c1cccc(Cl)c1)N1CCN(Cc2ccccc2)CC1 29.1 µM [activator, single point]
N#Cc1cc2c(nc1SCC1COc3ccccc3O1)CCC2 (centres undefined) 7.31 µM [activator, partial curve]
N#CC1(NC(=O)COC(=O)CCN=C2NS(=O)(=O)c3ccccc32)CCCCC1 9.2 µM [falling, partial curve, poor fit]
C#CC(CC)(CC)NC(=O)NC1CCCCC1 0.13 µM [falling, full curve, poor fit]
CCCCCCOc1ccc(N2C(=O)CC(SCCN)C2=O)cc1 (centres undefined) 2.06 µM [falling, full curve, poor fit]
Clc1ccc(OCCCn2ccnc2)c(Br)c1 1.03 µM [activator, full curve]
CN1/C(=C\C(=O)CSc2ncn[nH]2)C(C)(C)c2ccccc21 11.6 µM [activator, partial curve]
Nc1ccc(N2CCCCC2)c(Cl)c1 0.0041 µM [falling, full curve, poor fit]

2 records picked at random from those above:
Potency, inconclusive:
N#Cc1cc2c(nc1SCC1COc3ccccc3O1)CCC2 (centres undefined) 7.31 µM [activator, partial curve]
CN1/C(=C\C(=O)CSc2ncn[nH]2)C(C)(C)c2ccccc21 11.6 µM [activator, partial curve]

Source: PubChem BioAssay AID2685 (National Center for Advancing Translational Sciences (NCATS), 2010)
